Measurements reported in PubChem BioAssay AID743121 (NCATS, 2013)
In all, the deposit lists about 26,000 reagents; below is a random part of them. Over the whole deposit, 167 (0.63%) got an active call. 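Calls are per gene from RSA p-values that are not deposited; an individual active-marked siRNA can sensitise only weakly.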 The numbers tell different reagents against one gene apart. Further read-outs or replicates are left out here.

Test: 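Knock-downs that sensitise breast cancer cells to camptothecin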 (primary screen)
Cells: MDA-MB-231 cells, a human breast cancer line
Knock-down reagent: single siRNA against human genes, 20 nM siRNA (0.8 pmol per well)
Timing: 120 h (drug added 48 h after transfection, read 72 h later)
Treatment: camptothecin 20 nM (about EC30) for 72 h; vehicle 0.1% DMSO in parallel plates
Measurement: 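CellTiter-Glo ATP signal, scaled to control siRNA as percent viability; sensitisation given as log2 of untreated divided by camptothecin-treated viability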
Scale: log2 vehicle/camptothecin viability: higher = stronger sensitisation to camptothecin
Hit rule: 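Active genes have an RSA gene-level p-value below 0.001, computed from the ratios of their separate siRNAs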

log2 vehicle/camptothecin viability, by gene knocked down and reagent
GSN (gelsolin): #1 -0.294 inactive; #2 -0.269 inactive; #3 -0.569 inactive; #4 0.136 inactive
APEX2 (apurinic/apyrimidinic endodeoxyribonuclease 2): #1 -0.0559 inactive; #2 0.0503 inactive; #3 -0.469 inactive
ACP2 (acid phosphatase 2, lysosomal): #1 -0.0505 inactive; #2 -0.379 inactive; #3 -0.434 inactive; #4 -0.142 inactive
TPRA1 (transmembrane protein adipocyte associated 1): #1 -0.28 inactive; #2 -0.261 inactive; #3 -0.0912 inactive; #4 0.0295 inactive
ERN2 (endoplasmic reticulum to nucleus signaling 2): #1 -0.313 inactive; #2 -0.534 inactive; #3 -0.0674 inactive; #4 0.513 inactive
PTPN20 (protein tyrosine phosphatase non-receptor type 20): #1 0.158 inactive; #2 -0.458 inactive; #3 0.0031 inactive; #4 -0.473 inactive
CHRM3 (cholinergic receptor muscarinic 3): #1 0.103 inactive; #2 -0.135 inactive; #3 -0.431 inactive; #4 0.032 inactive
ULBP2 (UL16 binding protein 2): #1 -0.392 inactive; #2 -0.278 inactive; #3 -0.386 inactive; #4 -0.334 inactive; #5 -0.407 inactive; #6 -0.204 inactive; #7 -0.0971 inactive

4 entries already listed, sorted by “log2 vehicle/camptothecin viability”, descending:
gene knocked down	reagent	log2 vehicle/camptothecin viability	outcome
CHRM3 (cholinergic receptor muscarinic 3)	4	0.032	inactive
ULBP2 (UL16 binding protein 2)	2	-0.278	inactive
ULBP2 (UL16 binding protein 2)	1	-0.392	inactive
CHRM3 (cholinergic receptor muscarinic 3)	3	-0.431	inactive
